Reference: the supplement of paper PMC10735217
Where a name gives a salt, the structure may show the parent alone. Some of the results follow. Repeats in this data set agree poorly, so a single value says little.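 Human kidney-derived cells stably carry a construct in which eight TEAD-binding elements drive luciferase, measured by luminescence in a drug-repurposing library screen. A hit is any compound whose signal exceeds the plate mean by more than five robust Z scores.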

Tested on: HEK293A TEAD-LUC reporter
Assay: TEAD-luciferase reporter activity (YAP activation), robust Z score vs plate; higher = stronger YAP/TEAD activation
Details: 24 h

SMILES	TEAD-luciferase reporter activity (compound concentration: 200 nM)	TEAD-luciferase reporter activity (compound concentration: 2 uM)	TEAD-luciferase reporter activity (compound concentration: 10 uM)
CN/C(=N\S(=O)(=O)c1ccc(C(F)(F)F)cc1)N1C[C@@H](c2ccccc2)C(c2ccc(Cl)cc2)=N1	inactive: -0.0494	inactive: -1.06	inactive: -0.854
Cc1cc(CC(OC(=O)N2CCC(N3CCc4ccccc4NC3=O)CC2)C(=O)N2CCC(N3CCOCC3)CC2)cc(C)c1O (stereo unspecified)	inactive: -0.416	inactive: -0.873	inactive: -0.936
C=C(C)[C@@H]1CC[C@]2(CO)CC[C@]3(C)[C@H](CC[C@@H]4[C@@]5(C)CC[C@H](O)C(C)(C)[C@@H]5CC[C@]43C)[C@@H]12 [Betulin]	inactive: -1.82	inactive: 1.32	inactive: 1.35
CN(C)C(=O)NC1CC2(CCN(C(=O)c3ccc4[nH]ccc4c3)CC2)Oc2ccccc21 (stereo unspecified)	inactive: 1.1	–	inactive: -0.501
O=c1[nH]c2cc(C(F)(F)F)c(N3CCOCC3)cc2n(CP(=O)(O)O)c1=O [Fanapanel]	inactive: -1.54	inactive: -0.681	inactive: -0.184
OCCN1CCN(CCC=C2c3ccccc3Sc3ccc(C(F)(F)F)cc32)CC1 [Flupentixol hydrochloride]	inactive: -1.37	inactive: -0.102	inactive: -0.191
CCCCC1(O)C(=O)N(c2ccccc2)N(c2ccccc2)C1=O	inactive: -1.69	inactive: 0.265	inactive: -1.14
CN(Cc1cccc(C(F)(F)F)c1)C1CCc2ccccc21 (stereo unspecified)	inactive: 0.808	–	active: 15.7
Cc1cnn(C2CCN(c3nc4ccccc4n3Cc3ccc(F)cc3)CC2)c1 [H1 receptor antagonist]	–	inactive: 0.255	–
Cc1cnn(C2CCN(c3nc4ccccc4n3Cc3ccc(F)cc3)CC2)c1 [H1 receptor antagonist, Neuroc]	inactive: -0.148	–	inactive: 0.855
CN(C)c1ncnc2c1ncn2CCCCCOC(=O)NC(CCCNC(=N)N)C(=O)O (stereo unspecified) [Pharmaprojects No. 4667]	inactive: -0.814	inactive: -0.0233	inactive: 0.871
COc1cc(C(F)(F)F)cc(C(F)(F)F)c1C(=O)NC(c1ccccc1)C(C)(C)N1CCCC1 (stereo unspecified)	inactive: 3.45	inactive: -0.28	inactive: 1.57
CN(C)CCn1cnc2c1c(=O)n(C)c(=O)n2C	inactive: 0.884	inactive: -0.582	inactive: -0.174
COc1ccc(CN2CCCCC23Cc2ccccc2CN(C(C)=O)C3)cc1 (stereo unspecified)	inactive: 2.22	–	inactive: -0.546
Cc1ccccc1-c1nc(NC2CCCCC2)ncc1N(C)C(=O)C(C)(C)c1cc(C(F)(F)F)cc(C(F)(F)F)c1	inactive: 1.21	inactive: -1.77	inactive: 1.22
CC(CNC1CCCCC1)OC(=O)c1ccccc1 (stereo unspecified)	inactive: -0.221	inactive: -1	inactive: 1.53
CSCC[C@H](N)C(=O)N[C@@]1(C(=O)O)CS(=O)(=O)[C@H]2[C@H](C(=O)O)[C@H]21 [pomaglumetad methionil]	inactive: 0.782	inactive: 0.301	inactive: 0.709
CC(=O)OCC(=O)[C@@]1(O)CC[C@H]2[C@@H]3CCC4=CC(=O)CC[C@]4(C)[C@H]3[C@@H](O)C[C@@]21C [Cortell]	inactive: -0.567	–	inactive: 0.648
CC(=O)OCC(=O)[C@@]1(O)CC[C@H]2[C@@H]3CCC4=CC(=O)CC[C@]4(C)[C@H]3[C@@H](O)C[C@@]21C [Hydrocortisone acetate]	–	inactive: -1.16	–

SMILES	TEAD-luciferase reporter activity (compound concentration: 200 nM)	TEAD-luciferase reporter activity (compound concentration: 2 uM)	TEAD-luciferase reporter activity (compound concentration: 10 uM)
C[C@@]12C=Cc3occc3C1CC[C@@]13C[C@@H](CCC12)[C@@](O)(CO)C3 (stereo partly specified) [Kahweol]	inactive: 1.34	inactive: 1.08	inactive: 1.25
CC[N+](C)(C)CCN(C)CC[N+](C)(C)CC	inactive: 0.948	inactive: -0.618	inactive: 3.57
O=c1[nH]c(=O)n([C@H]2CC[C@@H](CO)O2)cc1I	inactive: 1.22	inactive: -2	inactive: 4.13
Cc1ccccc1Oc1cccc2c(=O)cc(N3CCOCC3)[nH]c12	inactive: -2.06	inactive: -0.983	inactive: -1.16
CC(C)C(=O)Nc1ccc([N+](=O)[O-])c(C(F)(F)F)c1	inactive: -0.801	–	inactive: 1.17
CC(C)C(=O)Nc1ccc([N+](=O)[O-])c(C(F)(F)F)c1 [flutamide]	–	inactive: 3.59	–
O=C(O)CCNC(=O)c1ccc(N=Nc2ccc(O)c(C(=O)O)c2)cc1	inactive: -2.37	–	inactive: 1.96
O=C(O)CCNC(=O)c1ccc(N=Nc2ccc(O)c(C(=O)O)c2)cc1 [balsalazide disodium]	–	inactive: 0.97	–
Nc1nc(OCCc2ccc(Cl)cc2)nc2c1ncn2[C@H]1O[C@@H](CO)C(O)C1O (stereo partly specified) [sonedenoson]	inactive: 2.96	inactive: 1.1	active: 16.6
O=C(O)C(Cc1ccccc1)NCc1ccc(Cl)cc1 (stereo unspecified)	inactive: 0.582	inactive: 1.67	inactive: 0.945
C=CC(=O)N[C@@H]1CN(c2nc(Nc3cn(C)nc3OC)c3ncn(C)c3n2)C[C@H]1F	inactive: -0.487	inactive: 0.411	inactive: -1.38
CO[C@@H]1[C@H](O)[C@@H](CO)O[C@H]1n1cnc2c(NC3CCCCC3)ncnc21	inactive: -0.97	inactive: -1.65	inactive: -0.885
CC(C)NCCCC1(C(N)=O)c2ccccc2-c2ccccc21	inactive: -1.23	inactive: 0.196	inactive: 2.26
CCCCC/C=C\C=C\CCCCCCCCC(=O)O [trans-10,cis-12-Conjugated linoleic acid]	inactive: -1.47	inactive: -1.65	inactive: -0.0212
CC(=O)N1CCC(C(=O)N2CCC(N3Cc4ccccc4C3=O)CC2)CC1	inactive: -0.266	–	inactive: 1.66
CS(=O)(=O)c1ccc([C@@H](O)[C@@H](CO)NC(=O)C(Cl)Cl)cc1 [Thiamphenicol]	inactive: -1.61	inactive: 0.0325	active: 5.55
O=C1NC(CCCl)Oc2ccccc21 (stereo unspecified)	inactive: 0.911	inactive: -0.913	inactive: 0.813
CN1CCN(C2=Cc3ccccc3/C(=C\C#N)c3ccc(Cl)cc32)CC1	inactive: -0.185	inactive: 2.71	inactive: -0.289
CC(C)CCC[C@@H](C)[C@H]1CC[C@H]2[C@@H]3[C@@H](C)C[C@H]4N(C)C(=O)CC[C@]4(C)[C@H]3CC[C@]12C	inactive: -0.665	inactive: -1.36	inactive: -1.39

In another format: entries from further up.

| SMILES | TEAD-luciferase reporter activity (compound concentration: 200 nM) | TEAD-luciferase reporter activity (compound concentration: 2 uM) | TEAD-luciferase reporter activity (compound concentration: 10 uM) |
| --- | --- | --- | --- |
| CC(=O)OCC(=O)[C@@]1(O)CC[C@H]2[C@@H]3CCC4=CC(=O)CC[C@]4(C)[C@H]3[C@@H](O)C[C@@]21C [Hydrocortisone acetate] | – | inactive: -1.16 | – |
| CC[N+](C)(C)CCN(C)CC[N+](C)(C)CC | inactive: 0.948 | inactive: -0.618 | inactive: 3.57 |
| O=c1[nH]c(=O)n([C@H]2CC[C@@H](CO)O2)cc1I | inactive: 1.22 | inactive: -2 | inactive: 4.13 |
| Cc1ccccc1Oc1cccc2c(=O)cc(N3CCOCC3)[nH]c12 | inactive: -2.06 | inactive: -0.983 | inactive: -1.16 |
| CC(C)C(=O)Nc1ccc([N+](=O)[O-])c(C(F)(F)F)c1 | inactive: -0.801 | – | inactive: 1.17 |
| CC(C)C(=O)Nc1ccc([N+](=O)[O-])c(C(F)(F)F)c1 [flutamide] | – | inactive: 3.59 | – |
| O=C(O)CCNC(=O)c1ccc(N=Nc2ccc(O)c(C(=O)O)c2)cc1 | inactive: -2.37 | – | inactive: 1.96 |
| Nc1nc(OCCc2ccc(Cl)cc2)nc2c1ncn2[C@H]1O[C@@H](CO)C(O)C1O (stereo partly specified) [sonedenoson] | inactive: 2.96 | inactive: 1.1 | active: 16.6 |
| O=C(O)C(Cc1ccccc1)NCc1ccc(Cl)cc1 (stereo unspecified) | inactive: 0.582 | inactive: 1.67 | inactive: 0.945 |
| CO[C@@H]1[C@H](O)[C@@H](CO)O[C@H]1n1cnc2c(NC3CCCCC3)ncnc21 | inactive: -0.97 | inactive: -1.65 | inactive: -0.885 |
| CC(C)NCCCC1(C(N)=O)c2ccccc2-c2ccccc21 | inactive: -1.23 | inactive: 0.196 | inactive: 2.26 |
| CCCCC/C=C\C=C\CCCCCCCCC(=O)O [trans-10,cis-12-Conjugated linoleic acid] | inactive: -1.47 | inactive: -1.65 | inactive: -0.0212 |
| CC(=O)N1CCC(C(=O)N2CCC(N3Cc4ccccc4C3=O)CC2)CC1 | inactive: -0.266 | – | inactive: 1.66 |
| CS(=O)(=O)c1ccc([C@@H](O)[C@@H](CO)NC(=O)C(Cl)Cl)cc1 [Thiamphenicol] | inactive: -1.61 | inactive: 0.0325 | active: 5.55 |
| O=C1NC(CCCl)Oc2ccccc21 (stereo unspecified) | inactive: 0.911 | inactive: -0.913 | inactive: 0.813 |
| CN1CCN(C2=Cc3ccccc3/C(=C\C#N)c3ccc(Cl)cc32)CC1 | inactive: -0.185 | inactive: 2.71 | inactive: -0.289 |
| CC(C)CCC[C@@H](C)[C@H]1CC[C@H]2[C@@H]3[C@@H](C)C[C@H]4N(C)C(=O)CC[C@]4(C)[C@H]3CC[C@]12C | inactive: -0.665 | inactive: -1.36 | inactive: -1.39 |

The results go on.

SMILES	TEAD-luciferase reporter activity (compound concentration: 200 nM)	TEAD-luciferase reporter activity (compound concentration: 2 uM)	TEAD-luciferase reporter activity (compound concentration: 10 uM)
O=C(C1CC1)N1CCN(c2nc3ncccc3o2)CC1	inactive: -3.37	–	inactive: 4.21
COc1ccc(CC(=O)Nc2cc3c(cc2[N+](=O)[O-])OC(C)(C)[C@H](O)[C@H]3NC2CC2)cc1	inactive: 2.26	inactive: 0.264	inactive: 1.76
COc1ccc(CCN(C)CCCOc2ccc(S(=O)(=O)c3c(C(C)C)cn4ccccc34)cc2)cc1OC	inactive: -0.256	inactive: 0.389	inactive: -1.21
CCN1C(=O)CC2(CCN(C)CC2)C1=O	inactive: -1.17	inactive: -1.35	inactive: 1.69
COc1ccccc1CCC(=O)Oc1cccc2ccccc12	inactive: -1.96	inactive: -0.378	inactive: 3.37
CC(C)(C)[C@H](NC(=O)C(CC1CCCC1)CN(O)C=O)C(=O)N1CCN(Cc2nccs2)CC1 (stereo partly specified)	inactive: -1.37	inactive: 1.05	inactive: -0.806
CN1[C@@H]2CC[C@H]1C[C@@H](OC(c1ccccc1)c1ccccc1)C2 [Benzatropine mesilate]	–	inactive: 2.5	–
CN1[C@@H]2CC[C@H]1C[C@@H](OC(c1ccccc1)c1ccccc1)C2	inactive: -0.923	–	inactive: 0.963
N#Cc1ccccc1OCC(O)CNCCNC(=O)Nc1ccccc1 (stereo unspecified)	inactive: -2.54	inactive: -1.46	inactive: 0.295
CCCCN1CCCC1CNC(=O)c1cc(S(N)(=O)=O)cc2c1OC(C)C2 (stereo unspecified)	inactive: 1.01	inactive: -0.958	inactive: 1.61
O=C(Nc1nn[nH]n1)c1cc(Oc2ccccc2)c2ccccn2c1=O [Quinotolast sodium]	inactive: -1.97	inactive: -1.41	inactive: 0.934
c1ccc(COc2ccc(CCNc3ccc4cnn(CCN5CCCC5)c4c3)cc2)cc1	inactive: 2.38	inactive: -0.268	inactive: 1.5
[NH2][Pt]([NH2])([Cl])[Cl]	inactive: -0.406	inactive: -0.136	active: 5.23
Nc1nc(=O)n([C@@H]2CS[C@H](CO)O2)cc1F (racemic) [FTC, racemic]	–	inactive: 0.219	–
CC(C)(C)C(=O)S[C@H]1CO[C@H]2[C@@H]1OC[C@H]2O[N+](=O)[O-]	inactive: 1.66	inactive: 0.033	inactive: 0.236
O=C(CCc1ccc(O)cc1)c1c(O)cc(O)cc1OC1O[C@H](CO)[C@@H](O)[C@H](O)[C@H]1O (stereo partly specified) [Phlorizin]	inactive: -1.49	inactive: 0.952	inactive: 2.33
CC(C)(C)N[C@H]1C=CC(c2ccccc2)(c2ccccc2)C1	inactive: 1.79	inactive: 4.53	inactive: 3.2
c1ccc(C2CCc3ccccc3O2)cc1 (stereo unspecified) [2-phenylchromane]	inactive: 0.00897	inactive: -1.43	inactive: -0.163
